# Experimental data as given in PubChem BioAssay AID1259415 (National Center for Advancing Translational Sciences (NCATS), 2018).
# Hit rate of the full screen: of about 410,000 compounds, about 18,000 (4.4%) were called active. Inconclusive means that the source gave no clear call. Such entries were picked first, then a sample of the others. Cut-off read from the data, not from the text of the source: active = activity change below about -60%; inconclusive = no clear call, values can overlap the other calls; inactive = above about -39%.
# Assay: qHTS Assay for inhibitors of the human cytomegalovirus (HCMV)
# Settings: HFF cells, HCMV-luciferase reporter, 72 h; at 57.5 µM; active compounds read low
# Method in brief: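 Compounds were evaluated in HFFs infected with an HCMV luciferase reporter virus (MOI 1 PFU/cell). Luciferase in lysates collected 72 h post infection served as the replication measure.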
# % is set by controls: 0 for no effect and ±100 for the full control effect.
row,Structure (SMILES),"activity change, negative = inhibition"
1,OCCN(Cc1ccccc1)Cc1ccc(Cl)cc1,inconclusive: -46%
2,O=C(CCS(=O)(=O)c1ccccc1)N(CCCN1CCOCC1)c1nc2c(F)cccc2s1,inconclusive: -57.8%
3,COc1ccc(NC(=O)c2ccc3ncsc3c2)cc1,inactive: 75.5%
4,COC(=O)C1=C(c2ccccc2)C[C@@H]2CC[C@H]1N2C(=O)N1CCCC1,inactive: -5.07%
5,O=C(NC(=S)N1CCc2ccccc21)c1ccco1,inconclusive: -48.9%
6,CSCCC(NC(=O)c1ccccc1Br)C(=O)N1CCN(C(C)=O)CC1 (stereo unspecified),inactive: 29.3%
7,CC(NC(=S)NCCCN1CCOCC1)C12CC3CC(CC(C3)C1)C2 (stereo unspecified),inconclusive: -44.1%
8,O=S1(=O)N=C2CCCN2C(c2ccc(F)cc2)N1 (stereo unspecified),inconclusive: -42.8%
9,COC(=O)CC1Oc2ccccc2-n2cc(-c3ccc(F)cc3)nc21 (stereo unspecified),inactive: -31.7%
10,CNC(=O)CC1C(=O)N(c2ccc(F)cc2)C(=S)N1NC(=O)c1ccc(Br)cc1 (stereo unspecified),inconclusive: -59.3%
11,COc1cccc(CNC(=O)CNC(=S)N(Cc2ccccc2)Cc2ccccc2F)c1,active: -66.3%
12,COc1ccc(-c2cc(C(F)(F)F)c(C#N)c(=O)[nH]2)cc1,inconclusive: -41.7%
13,COc1ccc(NC(=O)Cn2nnc(C(=O)NCc3cccs3)c2N)cc1OC,inconclusive: -40.4%
14,CC(=O)N1CCC(N(CCCOC(C)C)C(=O)Nc2ccc(C)c(C)c2)CC1,inconclusive: -42.3%
15,Cc1ccc(N2C(=O)C3C4C=CC(CC4)C3C2=O)cc1[N+](=O)[O-] (stereo unspecified),inactive: -20.7%
16,CCOC(=O)c1c(NC(=O)COC(=O)c2ccncc2)sc(C)c1C,inconclusive: -40.4%
17,CCOCCCNC(=O)c1ccc2c(c1)ncn2-c1ccccc1OC,inconclusive: -46.8%
18,C=CCN1C[C@H](COC(=O)c2ccc(C)c(C)c2)Oc2cccc(F)c2S1(=O)=O,inactive: -7.22%
19,COC(=O)C1=C(CSCc2ccco2)NC(=O)NC1c1cc(C)ccc1C (stereo unspecified),inconclusive: -42%

# In the list so far, these have bromine:
row,Structure (SMILES),"activity change, negative = inhibition"
6,CSCCC(NC(=O)c1ccccc1Br)C(=O)N1CCN(C(C)=O)CC1 (stereo unspecified),inactive: 29.3%
10,CNC(=O)CC1C(=O)N(c2ccc(F)cc2)C(=S)N1NC(=O)c1ccc(Br)cc1 (stereo unspecified),inconclusive: -59.3%

# The list continues:

row,Structure (SMILES),"activity change, negative = inhibition"
1,CCc1ccccc1NC(=O)c1ccc2c(c1)CCCN2S(C)(=O)=O,inactive: 26.6%
2,COc1ccccc1NC(=S)NC1CC2CCC1C2 (stereo unspecified),inconclusive: -40.5%
3,O=S(=O)(/N=C(/NS(=O)(=O)c1ccccc1)c1ccccc1)c1ccccc1,active: -106%
4,O=C(C1CCCN(Cc2cc(Br)ccc2O)C1)N1CCCCC1 (stereo unspecified),inconclusive: -53.3%
5,NC(=O)c1cccc(Nc2nc(C(N)COCc3ccccc3)cs2)n1 (stereo unspecified),inactive: -20.4%
6,CCOC(=O)N1CCN(C(=O)c2oc3ccc(S(=O)(=O)N4CCCCC4)cc3c2C)CC1,inconclusive: -47.8%
7,Cc1cccc(NC(=O)c2nc(-c3ccccc3)n(-c3ccccc3)n2)c1C,inconclusive: -41.5%
8,Nc1nsc2ccccc12,active: -72.5%
9,Cc1ccccc1CN1CCC(CNC(=O)Nc2ccc(F)cc2F)CC1,inconclusive: -59.9%
10,COc1ccccc1CNC(=O)Cn1cc2c(n1)-c1c(oc(C(=O)N3CCOCC3)c1C)CC2,inconclusive: -48.9%
11,C=CCn1c(O)c(N=NC(=O)c2ccccc2NS(=O)(=O)c2cccs2)c2ccccc21,active: -95.1%
12,O=C(CS(=O)(=O)c1ccccc1)NCc1ccc(Cl)cc1,inconclusive: -52.6%
13,Cc1ccc2c(CC(=O)Nc3ccc(S(=O)(=O)N4CCCCC4)cc3)coc2c1C,inactive: 22.4%
14,Cc1cccc(N2CCN(C(=O)Cn3c(-c4cccs4)cc4ccccc43)CC2)c1C,inactive: -7.91%
15,COc1ccc(C(=O)NCC(=O)OCC(=O)NCCC2=CCCCC2)cc1,inconclusive: -47.2%
16,Cc1ccc(C(=O)N2CC(C)OC(C)C2)cc1[N+](=O)[O-] (stereo unspecified),inconclusive: -41.1%
17,Cc1cc(C(=O)Nc2cccc(NC(=O)c3ccco3)c2)ccc1[N+](=O)[O-],active: -82.4%
18,CCCS(=O)(=O)N1CC(=O)N(c2ccc(C)c(Cl)c2)C(C)(C(=O)NC2CCCCCC2)C1 (stereo unspecified),inconclusive: 0%
19,CC(C)(C)S(=O)(=O)c1cnc(N2CCCC2)nc1N,inactive: -0.254%

row,Structure (SMILES),"activity change, negative = inhibition"
1,COc1cccc(NC(=O)CN(C)C(=O)c2cccc(S(=O)(=O)N3CCN(c4ccc(F)cc4)CC3)c2)c1,inconclusive: -58.3%
2,CCC(=O)N1CCc2cc(CNS(=O)(=O)c3ccc(CC(C)C)cc3)ccc21,inconclusive: -58%
3,Oc1ccccc1CNn1cnnc1,active: -100%
4,NS(=O)(=O)c1ccc(N2C(=O)C(=O)/C(=C(/O)c3ccccc3)C2c2ccc(Cl)cc2)cc1 (stereo unspecified),inconclusive: -41%
5,Clc1ccc(-n2cccc2CN2CCc3c([nH]c4ccccc34)C2c2ccccn2)nc1 (stereo unspecified),inactive: -24.3%
6,COc1ccccc1CCC(=O)N(CCC1=CCCCC1)c1c(N)n(Cc2ccccc2)c(=O)[nH]c1=O,inconclusive: -42.5%
7,CCC(=O)N1c2ccc(S(=O)(=O)CCC(=O)Nc3ccc(OC)cc3OC)cc2CC1C (stereo unspecified),inconclusive: -51.1%
8,CCc1ccc(C2c3c(-c4ccccc4O)n[nH]c3C(=O)N2Cc2cccnc2)cc1 (stereo unspecified),inactive: 2.27%
9,CCOc1ccc(C(C)NC(=S)NC2CCCCC2)cc1 (stereo unspecified),inconclusive: -48.4%
10,c1ccc(NNC2=NCCCCC2)cc1,inactive: -35.4%
11,O=C(CCNS(=O)(=O)c1ccc2c(c1)CCN2C(=O)C1CC1)N1CCN(c2cccc(Cl)c2)CC1,inconclusive: -50.5%
12,CN1CCc2cc3c(c4c2C1CC41CCC(=NO)CC1)OCO3 (stereo unspecified),inconclusive: -41%
13,O=C1N=C(N2CCOCC2)S/C1=C/c1ccc(-c2ccc(F)cc2)o1,inactive: -4.08%
14,O=C1OC(c2cc(Br)c(O)c(Br)c2)c2ccccc21 (stereo unspecified),inconclusive: -45%
15,c1cn2cc(-c3ccc4c(c3)OCO4)nc2s1,inactive: 30.5%
16,Cc1cccc(N(C)S(=O)(=O)c2cc(-c3cnc(C4CC4)o3)ccc2C)c1,inconclusive: -55.1%
17,O=C(Cc1cccs1)N1CCC(c2nc3c(nnn3Cc3ccc(F)cc3)c(=O)[nH]2)CC1,active: -95.4%
18,O=c1[nH]c(CN2CCN(c3ccc(O)cc3)CC2)nc2scc(-c3ccc(Cl)cc3)c12,inconclusive: -54%
